From patent US20240418731A1
No constants are given. Whether binding was seen depends on the method and setting. In cells and extracts the contact can be indirect. Some results given as binding are weak or reduced against the parent protein; the word gives no strength.

Experiments:
[1] = target: H-2Db (mouse) (UniProt P01899); test: immunoprecipitation of MHCI from MC-38 cells, peptide elution, LC-MS/MS
[2] = target: H-2Kb (mouse) (UniProt P01901); test: as above

Row | binding [1] | binding [2] | Binder
1 | binds | – | ASMTNMELM [Adpgk mutant peptide …]
2 | binds | – | AQLANDVVL [Reps1 mutant peptide …]
3 | – | binds | DPSSSVLFEY [Med12 mutant peptide …]
4 | binds | – | AALLNSAVL [Irgq mutant peptide …]
5 | binds | – | SSPYSLHYL [Cpne1 mutant peptide …]
6 | binds | – | MAPIDHTTM [Aatf mutant peptide …]
7 | – | binds | SIIVFNLL [Dpagt1 mutant peptide SIIVFNLL]
